For assay [1], the target named is T1, phospholipase Cβ1 (PLCβ1), endogenous (rat (endogenous in PC12 and A10)) (UniProt P10687).
T1 sequence: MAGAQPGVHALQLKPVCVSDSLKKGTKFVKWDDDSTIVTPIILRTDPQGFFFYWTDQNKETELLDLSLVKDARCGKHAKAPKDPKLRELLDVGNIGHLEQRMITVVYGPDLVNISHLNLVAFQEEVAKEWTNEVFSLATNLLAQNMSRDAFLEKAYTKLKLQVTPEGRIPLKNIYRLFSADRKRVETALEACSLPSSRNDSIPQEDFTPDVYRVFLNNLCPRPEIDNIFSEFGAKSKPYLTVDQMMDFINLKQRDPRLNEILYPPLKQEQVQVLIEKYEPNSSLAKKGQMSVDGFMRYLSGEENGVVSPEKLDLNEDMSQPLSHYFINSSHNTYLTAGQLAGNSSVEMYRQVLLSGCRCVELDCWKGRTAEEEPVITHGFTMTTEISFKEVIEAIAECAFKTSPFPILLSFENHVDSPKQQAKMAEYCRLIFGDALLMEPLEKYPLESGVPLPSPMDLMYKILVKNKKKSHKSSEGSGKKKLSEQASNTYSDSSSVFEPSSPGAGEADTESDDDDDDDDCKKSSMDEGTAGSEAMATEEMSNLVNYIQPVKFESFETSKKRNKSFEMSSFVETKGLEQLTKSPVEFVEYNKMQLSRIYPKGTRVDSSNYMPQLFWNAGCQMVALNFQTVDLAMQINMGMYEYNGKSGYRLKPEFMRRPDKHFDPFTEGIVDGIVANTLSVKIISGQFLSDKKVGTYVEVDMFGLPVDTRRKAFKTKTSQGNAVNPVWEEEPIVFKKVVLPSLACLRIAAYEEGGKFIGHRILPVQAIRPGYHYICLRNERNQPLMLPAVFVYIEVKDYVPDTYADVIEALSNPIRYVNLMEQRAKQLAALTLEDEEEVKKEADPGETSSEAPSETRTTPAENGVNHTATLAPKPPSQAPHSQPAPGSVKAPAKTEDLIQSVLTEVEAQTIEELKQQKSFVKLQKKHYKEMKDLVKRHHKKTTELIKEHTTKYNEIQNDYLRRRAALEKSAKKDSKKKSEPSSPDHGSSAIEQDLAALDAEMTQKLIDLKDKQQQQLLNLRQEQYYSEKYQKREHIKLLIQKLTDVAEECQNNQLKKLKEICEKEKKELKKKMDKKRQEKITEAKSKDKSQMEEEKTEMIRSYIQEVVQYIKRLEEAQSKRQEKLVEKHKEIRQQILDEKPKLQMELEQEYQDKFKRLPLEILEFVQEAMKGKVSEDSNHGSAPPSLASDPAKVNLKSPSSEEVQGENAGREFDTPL
The assay can be described thus: co-IP.

By UniProt entry, the sequences of proteins in these tests, tags left out.
UniProt Q9UKV8: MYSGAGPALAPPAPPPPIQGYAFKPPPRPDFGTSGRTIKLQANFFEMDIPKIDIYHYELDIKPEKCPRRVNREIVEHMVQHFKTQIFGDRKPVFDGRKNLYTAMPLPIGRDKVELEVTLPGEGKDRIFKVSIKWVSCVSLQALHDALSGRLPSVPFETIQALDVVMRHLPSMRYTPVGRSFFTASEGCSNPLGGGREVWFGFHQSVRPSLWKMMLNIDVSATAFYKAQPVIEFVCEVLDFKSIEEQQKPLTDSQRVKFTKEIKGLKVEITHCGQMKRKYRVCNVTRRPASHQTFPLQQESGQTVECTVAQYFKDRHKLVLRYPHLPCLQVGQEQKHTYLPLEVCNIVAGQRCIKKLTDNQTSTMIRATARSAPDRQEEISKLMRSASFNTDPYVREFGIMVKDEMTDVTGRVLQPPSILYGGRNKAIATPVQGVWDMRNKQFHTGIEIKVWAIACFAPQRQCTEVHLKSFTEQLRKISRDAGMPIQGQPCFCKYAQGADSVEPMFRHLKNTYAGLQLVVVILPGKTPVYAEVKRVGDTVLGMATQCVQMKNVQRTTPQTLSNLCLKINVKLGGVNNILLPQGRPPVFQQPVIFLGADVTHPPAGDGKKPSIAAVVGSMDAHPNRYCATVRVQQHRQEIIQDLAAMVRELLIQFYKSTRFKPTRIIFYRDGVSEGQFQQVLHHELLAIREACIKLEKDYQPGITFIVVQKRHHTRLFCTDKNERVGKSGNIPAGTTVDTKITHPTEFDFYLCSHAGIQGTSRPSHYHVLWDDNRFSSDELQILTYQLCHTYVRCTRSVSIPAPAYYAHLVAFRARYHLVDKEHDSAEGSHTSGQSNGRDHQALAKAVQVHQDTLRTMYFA
UniProt Q13283: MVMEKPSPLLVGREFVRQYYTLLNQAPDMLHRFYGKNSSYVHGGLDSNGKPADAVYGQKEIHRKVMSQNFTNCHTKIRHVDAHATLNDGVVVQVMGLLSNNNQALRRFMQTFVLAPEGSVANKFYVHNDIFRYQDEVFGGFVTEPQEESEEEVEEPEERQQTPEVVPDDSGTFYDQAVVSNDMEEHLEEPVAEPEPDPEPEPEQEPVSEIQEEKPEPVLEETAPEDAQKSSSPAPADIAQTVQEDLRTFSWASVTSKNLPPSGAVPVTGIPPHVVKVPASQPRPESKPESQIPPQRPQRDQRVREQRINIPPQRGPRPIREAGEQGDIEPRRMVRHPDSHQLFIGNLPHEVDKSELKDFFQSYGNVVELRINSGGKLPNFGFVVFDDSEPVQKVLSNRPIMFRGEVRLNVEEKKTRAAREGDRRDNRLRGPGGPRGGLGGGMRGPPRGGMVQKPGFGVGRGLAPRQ
UniProt P63241: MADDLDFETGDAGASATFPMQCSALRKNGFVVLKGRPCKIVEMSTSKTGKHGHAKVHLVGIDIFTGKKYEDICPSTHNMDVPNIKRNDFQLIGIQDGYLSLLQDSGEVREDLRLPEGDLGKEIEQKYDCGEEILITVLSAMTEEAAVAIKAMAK

The target of another assay is T2, eGFP-PLCβ1 (UniProt P10687).
T2 sequence: T1 sequence
The assay can be described thus: FRET or BRET. On the technique in general: Bioluminescence resonance energy transfer reports proximity on the nanometre scale.

For assay [2], the target named is T3, PLCβ1, purified (cross-linking) (UniProt P10687).
T3 sequence: T1 sequence
Description: cross-linking.

No constants are given. Whether binding was seen depends on the method and setting. For some of these results: In cells and extracts the contact can be indirect. Some binding calls cover weakened binding; strength is not graded here. For some of these results: Where a sequence is shown, tags or fusion partners need not be part of it.

Consider “Ago2, over-expressed (from UniProt Q9UKV8 1-859)”, for which the binding result in assay [1] was “binds”.
In the case of eGFP-G3BP1 (from UniProt Q13283 1-466), the binding entry with eGFP-PLCβ1 is reported as “no binding”.
As for “eIF5A, purified, unlabeled (from UniProt P63241 1-154)”, the binding result (with eGFP-PLCβ1; in assay [2]) was “binds” each time.

Values taken from doi:10.1101/521369.
